Measured values as given in paper PMC9681084, “MYB44-ENAP1/2 restricts HDT4 to regulate drought tolerance in Arabidopsis” (PLOS Genetics, 2022).
These are yes or no findings as the source states them, for the method shown. For some of these results: Binding seen in cells or lysates may run through a third protein. Some results given as binding are weak or reduced against the parent protein; the word gives no strength. Sequences can lack the tags named with a protein.

Sequences of proteins named here, by UniProt entry; tags and fusion partners are left off.
UniProt Q9FDW1: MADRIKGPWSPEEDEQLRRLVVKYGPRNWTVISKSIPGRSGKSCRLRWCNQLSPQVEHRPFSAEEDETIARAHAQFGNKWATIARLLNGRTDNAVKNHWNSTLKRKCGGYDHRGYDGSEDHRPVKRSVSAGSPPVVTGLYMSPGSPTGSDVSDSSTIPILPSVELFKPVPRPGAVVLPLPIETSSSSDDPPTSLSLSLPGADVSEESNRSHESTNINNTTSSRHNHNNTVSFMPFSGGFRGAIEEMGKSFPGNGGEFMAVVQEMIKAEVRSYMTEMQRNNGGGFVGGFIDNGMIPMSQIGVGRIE

How the values were obtained:
[1] = target: T1, ENAP1-YFP-HA (Arabidopsis) (UniProt Q8VZI9); assay: co-IP; transgenic Arabidopsis expressing MYB44-3xMyc and ENAP1/2-YFP-HA; leaves of three-week plants untreated (Control) or air-dried 4 h (Dehydration); GFP-Trap, 4°C 2 h, empty trap (IgG) as control; anti-Myc and anti-HA blots
T1 sequence: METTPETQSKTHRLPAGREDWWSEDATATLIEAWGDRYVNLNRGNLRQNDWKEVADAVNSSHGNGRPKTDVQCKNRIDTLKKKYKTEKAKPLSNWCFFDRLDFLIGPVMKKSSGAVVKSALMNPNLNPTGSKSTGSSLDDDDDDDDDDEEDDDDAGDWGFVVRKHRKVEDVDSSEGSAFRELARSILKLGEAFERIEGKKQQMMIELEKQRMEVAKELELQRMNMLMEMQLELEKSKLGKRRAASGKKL

[2] = target: MYB44 full length protein, BD fusion (Arabidopsis) (UniProt Q9FDW1); assay: two-hybrid; AD (pEXPAD502) and BD (pDBLeu) vector pairs co-transformed to yeast strain AH109; growth on SD/-Trp-Leu-His with 3'AT
[3] = target: MYB44 in pDEST-GWVYNE (BiFC construct) (Arabidopsis) (UniProt Q9FDW1); assay: split reporter; BiFC in tobacco leaves, Agrobacterium co-infiltration with p19; fluorescence by confocal microscopy two days after infiltration
[4] = target: MYB44-mCherry-FLAG (Arabidopsis) (UniProt Q9FDW1); assay: co-IP; tobacco leaves co-expressing VYCE-HA-HDT4 and MYB44-mCherry-FLAG; half leaf untreated (D0), half air dried 4 h (D4); DYKDDDDK Fab-Trap, 4°C 2 h, empty trap as control; anti-FLAG and anti-HA blots

Molecule: MYB44-3xMyc (from UniProt Q9FDW1 1-305)
- binding [1]: binds

B1: MBP-ENAP1 (natural protein, Arabidopsis, UniProt Q8VZI9 1-249, looked up)
chain: METTPETQSKTHRLPAGREDWWSEDATATLIEAWGDRYVNLNRGNLRQNDWKEVADAVNSSHGNGRPKTDVQCKNRIDTLKKKYKTEKAKPLSNWCFFDRLDFLIGPVMKKSSGAVVKSALMNPNLNPTGSKSTGSSLDDDDDDDDDDEEDDDDAGDWGFVVRKHRKVEDVDSSEGSAFRELARSILKLGEAFERIEGKKQQMMIELEKQRMEVAKELELQRMNMLMEMQLELEKSKLGKRRAASGKKL
notes: ENAP1, Arabidopsis, AT3G11100; the CDS ligated to pVP13 (His tag removed); source: E. coli, purified (Amylose resin)
- binding [2]: binds

B2: His-HDT4 (enzyme, Arabidopsis, UniProt Q9M4T3 1-203, looked up)
chain: MEFWGIEIKPGKPFKVIQKDGFMVHASQVTLGDVEKVKKDETFAVYVKIGDDENGFMIGNLSQKFPQFSIDLYLGHEFEISHNSTSSVYLIGYRTFDAFDELDEEIDSDSELDEYMEQQIAALPQNEINPEEDDESDSDEMGLDEDDDSSDEEDVEAEAPLKVAPPSKKMPNGAFEIAKGGKKNKSSGGKKRCPFPCGPSCKK
notes: HDT4, histone deacetylase of the HD2 family, Arabidopsis; the CDS ligated to pET28a; source: E. coli, purified (Ni-NTA agarose resin)
- binding [3]: binds
- binding [4]: binds
